Measured values published in the supplement of paper PMC10849652.
This is one part of the list.

Chains of the proteins cited; added tags and fusions are not shown. Lines headed by an entry give the natural chain unless they say otherwise; changes in a name come on top.
UniProt Q9Y487, whole entry, looked up: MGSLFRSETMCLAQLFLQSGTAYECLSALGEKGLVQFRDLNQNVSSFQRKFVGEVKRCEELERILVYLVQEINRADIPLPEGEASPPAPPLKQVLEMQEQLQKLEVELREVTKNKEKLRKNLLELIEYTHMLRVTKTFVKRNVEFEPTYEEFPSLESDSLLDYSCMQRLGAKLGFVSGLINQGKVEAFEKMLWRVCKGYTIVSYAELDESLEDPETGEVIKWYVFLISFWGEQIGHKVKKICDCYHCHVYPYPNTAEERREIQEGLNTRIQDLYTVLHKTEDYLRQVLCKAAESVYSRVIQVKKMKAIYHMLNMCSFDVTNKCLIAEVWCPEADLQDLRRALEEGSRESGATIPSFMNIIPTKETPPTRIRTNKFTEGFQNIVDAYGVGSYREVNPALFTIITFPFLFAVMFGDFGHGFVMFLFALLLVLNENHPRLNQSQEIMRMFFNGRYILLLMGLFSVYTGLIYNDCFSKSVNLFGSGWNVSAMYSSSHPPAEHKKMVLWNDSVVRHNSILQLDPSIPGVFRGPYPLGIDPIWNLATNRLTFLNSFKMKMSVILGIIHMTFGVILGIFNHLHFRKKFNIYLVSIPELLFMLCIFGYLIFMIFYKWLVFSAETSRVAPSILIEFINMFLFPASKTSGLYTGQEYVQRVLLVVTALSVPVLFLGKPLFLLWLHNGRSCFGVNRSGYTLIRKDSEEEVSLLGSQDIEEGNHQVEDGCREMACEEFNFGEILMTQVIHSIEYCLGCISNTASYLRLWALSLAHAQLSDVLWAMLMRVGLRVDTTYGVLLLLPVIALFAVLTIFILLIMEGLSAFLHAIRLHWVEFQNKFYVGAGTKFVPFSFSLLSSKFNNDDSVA
UniProt O75143: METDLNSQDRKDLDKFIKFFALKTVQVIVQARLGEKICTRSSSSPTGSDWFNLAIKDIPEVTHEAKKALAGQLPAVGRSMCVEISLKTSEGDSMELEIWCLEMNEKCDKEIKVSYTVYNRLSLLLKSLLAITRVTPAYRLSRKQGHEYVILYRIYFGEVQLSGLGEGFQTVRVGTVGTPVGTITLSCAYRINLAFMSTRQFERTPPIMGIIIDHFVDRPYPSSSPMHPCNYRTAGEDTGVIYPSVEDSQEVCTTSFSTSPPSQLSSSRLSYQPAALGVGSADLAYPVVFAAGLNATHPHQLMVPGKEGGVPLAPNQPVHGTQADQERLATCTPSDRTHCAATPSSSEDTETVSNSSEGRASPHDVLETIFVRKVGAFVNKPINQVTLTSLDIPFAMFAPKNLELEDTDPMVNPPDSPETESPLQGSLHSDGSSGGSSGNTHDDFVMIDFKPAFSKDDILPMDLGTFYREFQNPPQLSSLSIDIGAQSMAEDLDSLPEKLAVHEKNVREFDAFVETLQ
UniProt P54709, whole entry, looked up: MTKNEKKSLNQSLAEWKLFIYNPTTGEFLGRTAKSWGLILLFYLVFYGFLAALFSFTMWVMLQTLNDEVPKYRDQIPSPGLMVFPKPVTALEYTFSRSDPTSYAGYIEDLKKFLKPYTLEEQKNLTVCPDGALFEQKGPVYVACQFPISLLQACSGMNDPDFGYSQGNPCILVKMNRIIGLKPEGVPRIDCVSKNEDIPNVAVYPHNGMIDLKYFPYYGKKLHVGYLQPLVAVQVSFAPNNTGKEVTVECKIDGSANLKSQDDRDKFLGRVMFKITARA
UniProt Q96BY7: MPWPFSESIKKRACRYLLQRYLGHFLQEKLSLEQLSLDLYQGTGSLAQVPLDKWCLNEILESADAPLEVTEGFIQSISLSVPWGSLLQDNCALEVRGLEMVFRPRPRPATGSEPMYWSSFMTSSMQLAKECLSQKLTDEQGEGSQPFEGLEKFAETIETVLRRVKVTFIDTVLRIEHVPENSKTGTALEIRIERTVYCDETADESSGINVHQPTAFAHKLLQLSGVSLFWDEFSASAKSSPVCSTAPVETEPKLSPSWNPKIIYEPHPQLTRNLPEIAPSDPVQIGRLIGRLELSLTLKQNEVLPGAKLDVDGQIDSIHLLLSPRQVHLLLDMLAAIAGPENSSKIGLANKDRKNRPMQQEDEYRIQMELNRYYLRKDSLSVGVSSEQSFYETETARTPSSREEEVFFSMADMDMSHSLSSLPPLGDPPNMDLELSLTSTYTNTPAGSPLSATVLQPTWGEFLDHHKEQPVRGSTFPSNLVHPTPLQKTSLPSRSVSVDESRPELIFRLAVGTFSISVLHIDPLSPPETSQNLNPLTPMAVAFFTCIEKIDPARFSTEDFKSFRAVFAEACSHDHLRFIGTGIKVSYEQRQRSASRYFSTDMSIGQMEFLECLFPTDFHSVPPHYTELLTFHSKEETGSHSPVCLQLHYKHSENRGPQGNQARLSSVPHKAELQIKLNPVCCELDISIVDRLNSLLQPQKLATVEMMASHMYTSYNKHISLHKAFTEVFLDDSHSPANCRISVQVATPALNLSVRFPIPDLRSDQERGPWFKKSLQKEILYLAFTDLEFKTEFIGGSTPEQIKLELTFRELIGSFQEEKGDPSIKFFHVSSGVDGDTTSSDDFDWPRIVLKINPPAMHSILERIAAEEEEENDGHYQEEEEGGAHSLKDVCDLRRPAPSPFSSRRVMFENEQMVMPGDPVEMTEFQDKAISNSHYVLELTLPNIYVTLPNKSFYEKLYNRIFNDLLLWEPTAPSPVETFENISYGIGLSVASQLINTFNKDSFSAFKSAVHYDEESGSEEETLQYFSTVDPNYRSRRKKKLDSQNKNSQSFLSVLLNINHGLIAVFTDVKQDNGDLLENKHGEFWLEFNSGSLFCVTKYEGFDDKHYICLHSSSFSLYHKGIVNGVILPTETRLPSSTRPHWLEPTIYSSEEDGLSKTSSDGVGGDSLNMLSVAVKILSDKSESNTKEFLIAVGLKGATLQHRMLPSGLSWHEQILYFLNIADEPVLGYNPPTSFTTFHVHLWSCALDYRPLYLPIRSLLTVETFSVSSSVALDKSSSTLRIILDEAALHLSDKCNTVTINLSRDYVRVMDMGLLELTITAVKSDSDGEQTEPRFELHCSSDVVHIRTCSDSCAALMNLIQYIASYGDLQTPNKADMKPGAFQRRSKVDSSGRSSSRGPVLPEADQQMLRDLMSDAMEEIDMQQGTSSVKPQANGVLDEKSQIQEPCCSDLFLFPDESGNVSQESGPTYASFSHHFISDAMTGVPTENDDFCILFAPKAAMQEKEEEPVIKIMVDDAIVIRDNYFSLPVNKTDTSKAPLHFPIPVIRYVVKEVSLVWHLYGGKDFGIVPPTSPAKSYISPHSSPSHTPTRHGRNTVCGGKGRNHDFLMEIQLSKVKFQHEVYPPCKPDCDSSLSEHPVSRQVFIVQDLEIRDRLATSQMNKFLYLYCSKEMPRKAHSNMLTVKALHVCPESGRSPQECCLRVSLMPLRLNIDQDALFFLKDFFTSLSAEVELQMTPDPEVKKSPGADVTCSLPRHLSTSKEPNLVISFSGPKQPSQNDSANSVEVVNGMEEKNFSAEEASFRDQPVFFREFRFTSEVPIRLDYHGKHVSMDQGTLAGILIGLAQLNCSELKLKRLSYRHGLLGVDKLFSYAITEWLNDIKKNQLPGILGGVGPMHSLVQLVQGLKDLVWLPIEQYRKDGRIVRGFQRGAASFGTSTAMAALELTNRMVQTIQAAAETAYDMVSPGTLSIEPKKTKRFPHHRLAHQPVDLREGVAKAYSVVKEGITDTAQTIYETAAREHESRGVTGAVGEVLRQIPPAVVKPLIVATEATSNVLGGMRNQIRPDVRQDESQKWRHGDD
UniProt Q7L266: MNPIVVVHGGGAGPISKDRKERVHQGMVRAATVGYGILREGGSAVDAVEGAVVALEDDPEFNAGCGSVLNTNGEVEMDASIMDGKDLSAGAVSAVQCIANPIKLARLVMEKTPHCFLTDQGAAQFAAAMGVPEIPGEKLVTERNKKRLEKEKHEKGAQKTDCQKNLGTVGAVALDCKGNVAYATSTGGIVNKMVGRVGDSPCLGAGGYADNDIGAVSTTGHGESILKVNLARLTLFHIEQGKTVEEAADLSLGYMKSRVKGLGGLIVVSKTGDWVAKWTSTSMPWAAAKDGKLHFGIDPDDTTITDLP
UniProt P36543, whole entry, looked up: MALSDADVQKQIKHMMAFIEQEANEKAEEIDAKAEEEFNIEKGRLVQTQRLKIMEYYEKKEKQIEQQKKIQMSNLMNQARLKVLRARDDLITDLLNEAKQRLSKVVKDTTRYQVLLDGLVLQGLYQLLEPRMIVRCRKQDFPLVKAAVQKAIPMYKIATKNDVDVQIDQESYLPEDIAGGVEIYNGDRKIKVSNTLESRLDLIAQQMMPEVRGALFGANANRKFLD
UniProt O75947: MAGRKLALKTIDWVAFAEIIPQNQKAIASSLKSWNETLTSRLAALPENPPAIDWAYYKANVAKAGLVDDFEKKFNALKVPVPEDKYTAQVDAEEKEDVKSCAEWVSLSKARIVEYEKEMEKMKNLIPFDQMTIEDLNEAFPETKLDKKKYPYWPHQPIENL
UniProt O75348, whole entry, looked up: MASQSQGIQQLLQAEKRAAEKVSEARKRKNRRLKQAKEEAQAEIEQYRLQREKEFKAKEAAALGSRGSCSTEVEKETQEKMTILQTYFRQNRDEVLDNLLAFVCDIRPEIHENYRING
UniProt Q9Y4P1: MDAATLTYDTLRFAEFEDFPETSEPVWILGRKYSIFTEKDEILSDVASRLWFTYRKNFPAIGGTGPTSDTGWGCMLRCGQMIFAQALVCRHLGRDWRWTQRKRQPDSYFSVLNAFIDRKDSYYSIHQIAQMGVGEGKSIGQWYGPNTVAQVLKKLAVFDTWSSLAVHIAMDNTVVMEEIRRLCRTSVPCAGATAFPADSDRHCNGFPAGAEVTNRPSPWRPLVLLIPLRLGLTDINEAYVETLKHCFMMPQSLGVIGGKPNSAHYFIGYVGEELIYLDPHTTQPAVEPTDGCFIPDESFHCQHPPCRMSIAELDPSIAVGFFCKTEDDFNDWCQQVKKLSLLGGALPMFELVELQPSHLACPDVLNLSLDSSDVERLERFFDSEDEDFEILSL
UniProt Q8N9N2: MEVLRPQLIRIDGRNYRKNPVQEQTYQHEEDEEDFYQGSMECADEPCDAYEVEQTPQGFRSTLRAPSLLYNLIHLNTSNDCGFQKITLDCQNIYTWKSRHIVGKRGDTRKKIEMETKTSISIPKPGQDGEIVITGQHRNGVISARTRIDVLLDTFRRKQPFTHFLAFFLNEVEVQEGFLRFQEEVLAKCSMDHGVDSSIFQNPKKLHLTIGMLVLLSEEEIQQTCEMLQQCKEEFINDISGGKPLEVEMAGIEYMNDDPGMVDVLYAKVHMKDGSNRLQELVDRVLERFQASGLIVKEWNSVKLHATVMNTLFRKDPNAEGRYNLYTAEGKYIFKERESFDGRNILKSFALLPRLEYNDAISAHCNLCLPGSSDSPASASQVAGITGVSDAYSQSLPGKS
UniProt Q9H6S1, whole entry, looked up: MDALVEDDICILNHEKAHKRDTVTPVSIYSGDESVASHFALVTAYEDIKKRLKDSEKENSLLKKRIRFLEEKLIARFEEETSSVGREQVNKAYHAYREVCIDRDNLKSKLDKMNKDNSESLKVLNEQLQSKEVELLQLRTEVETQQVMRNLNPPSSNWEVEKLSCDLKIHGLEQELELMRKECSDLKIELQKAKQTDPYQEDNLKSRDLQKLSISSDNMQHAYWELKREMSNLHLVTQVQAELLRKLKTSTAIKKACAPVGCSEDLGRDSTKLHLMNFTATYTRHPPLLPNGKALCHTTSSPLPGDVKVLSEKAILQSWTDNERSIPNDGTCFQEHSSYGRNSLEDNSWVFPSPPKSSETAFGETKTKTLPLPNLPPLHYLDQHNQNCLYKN
UniProt Q06055: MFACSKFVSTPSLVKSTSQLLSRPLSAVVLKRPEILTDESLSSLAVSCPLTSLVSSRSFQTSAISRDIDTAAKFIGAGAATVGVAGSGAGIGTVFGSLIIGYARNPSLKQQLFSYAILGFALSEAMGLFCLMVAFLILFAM
UniProt P18859: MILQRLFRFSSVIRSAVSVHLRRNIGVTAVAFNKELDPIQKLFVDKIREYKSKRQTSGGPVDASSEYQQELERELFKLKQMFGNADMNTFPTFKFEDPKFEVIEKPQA
UniProt O95671: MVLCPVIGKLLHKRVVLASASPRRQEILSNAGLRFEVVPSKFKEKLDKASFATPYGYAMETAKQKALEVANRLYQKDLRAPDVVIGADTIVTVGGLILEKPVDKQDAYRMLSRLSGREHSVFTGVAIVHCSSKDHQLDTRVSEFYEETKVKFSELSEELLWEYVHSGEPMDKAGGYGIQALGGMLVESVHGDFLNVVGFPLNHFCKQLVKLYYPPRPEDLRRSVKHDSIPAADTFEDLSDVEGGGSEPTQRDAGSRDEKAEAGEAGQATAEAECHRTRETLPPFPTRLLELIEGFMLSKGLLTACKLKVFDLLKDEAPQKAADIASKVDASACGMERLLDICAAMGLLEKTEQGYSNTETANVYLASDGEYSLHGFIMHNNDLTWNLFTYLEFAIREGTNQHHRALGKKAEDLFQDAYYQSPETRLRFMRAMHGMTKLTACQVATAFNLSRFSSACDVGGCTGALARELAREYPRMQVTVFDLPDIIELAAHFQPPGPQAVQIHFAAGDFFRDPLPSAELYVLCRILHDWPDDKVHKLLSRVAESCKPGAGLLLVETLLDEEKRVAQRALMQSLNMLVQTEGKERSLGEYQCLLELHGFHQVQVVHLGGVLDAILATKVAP

What was measured:
Experiment in all cases: log2 fold change, soluble protein after heating vs DMSO (PISA); higher = thermal stabilisation; K562 lysate, 10 uM; active = over 0.2 and 3.5 SD of the protein, either way, in both replicates (recomputed)
vemurafenib = compound: CCCS(=O)(=O)Nc1ccc(F)c(C(=O)c2c[nH]c3ncc(-c4ccc(Cl)cc4)cc23)c1F [vemurafenib]
Summary of the method: (§1)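 A 30 min treatment with 10 μM compound was applied to crude K562 extract at 1 mg/mL protein in PBS pH 7.4 with 1 mM MgCl2. Heating for 3 min spanned 48°C-58°C, after which aliquots were pooled, adjusted to 0.5% NP-40 at 4°C and spun at 21,000xg for 90 min. TMTpro 16plex LC-MS/MS of the supernatant, with channel sums equalised, gave values recorded as log-two fold change in thermal stability against solvent controls, from duplicates.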

[1] = compound: CCCS(=O)(=O)Nc1ccc(F)c(C(=O)c2c[nH]c3ncc(Cl)cc23)c1F
Summary of the method: as §1

barasertib = compound: CCN(CCCOc1ccc2c(Nc3cc(CC(=O)Nc4cccc(F)c4)[nH]n3)ncnc2c1)CCOP(=O)(O)O [barasertib]
Summary of the method: as §1

[2] = compound: CC[C@@H]1C(=O)N(C)c2cnc(Nc3ccc(C(=O)NC4CCN(C)CC4)cc3OC)nc2N1C1CCCC1
Summary of the method: as §1

volasertib = compound: CC[C@@H]1C(=O)N(C)c2cnc(Nc3ccc(C(=O)N[C@H]4CC[C@H](N5CCN(CC6CC6)CC5)CC4)cc3OC)nc2N1C(C)C [volasertib]
Summary of the method: as §1

[3] = compound: CCn1c(C(=O)N(C2CC2)C2CC2)cc2c3c(ncn3C)c(Nc3cc(C)n(C)n3)nc21
Summary of the method: as §1

[4] = compound: CCn1cc(-c2ccnc3[nH]c(-c4cccc(CN(C)C)c4)cc23)c(-c2ccc(NC(=O)N(C)C)cc2)n1
Summary of the method: as §1

[5] = compound: CN1CCC(CNc2ccc3ncc(-c4cccc(OC(F)(F)F)c4)n3n2)CC1
Summary of the method: as §1

saracatinib = compound: CN1CCN(CCOc2cc(OC3CCOCC3)c3c(Nc4c(Cl)ccc5c4OCO5)ncnc3c2)CC1 [saracatinib]
Summary of the method: as §1

sotrastaurin = compound: CN1CCN(c2nc(C3=C(c4c[nH]c5ccccc45)C(=O)NC3=O)c3ccccc3n2)CC1 [sotrastaurin]
Summary of the method: as §1

Measured: log2 fold change

ATP2B1 isoform 1 (UniProt P20020)
inactive: vemurafenib 0.024 | [1] 0.004 | barasertib 0.056 | [2] -0.015 | volasertib -0.016 | [3] -0.021 | [4] -0.056 | [5] 0.051 | saracatinib 0.006 | sotrastaurin 0.025

ATPAF2 (UniProt Q8N5M1)
inactive: vemurafenib 0.085 | [1] 0 | barasertib -0.038 | [2] 0.082 | volasertib 0.044 | [3] -0.053 | [4] -0.233 | [5] 0.077 | saracatinib 0.001 | sotrastaurin 0.035

ATRIP (UniProt Q8WXE1)
inactive: vemurafenib 0.174 | [1] 0.002 | barasertib -0.036 | volasertib -0.06 | [3] -0.013 | [4] 0.031 | [5] -0.001 | saracatinib 0.048 | sotrastaurin 0.002
active: [2] -0.281

ATP6V0A2 (UniProt Q9Y487)
inactive: vemurafenib -0.035 | [1] 0.013 | barasertib 0.037 | [2] 0.071 | volasertib 0.005 | [3] 0.017 | [4] -0.117 | [5] 0.14 | saracatinib -0.007 | sotrastaurin 0.029

ATL3 (UniProt Q6DD88)
inactive: vemurafenib 0.046 | [1] -0.022 | barasertib 0.022 | [2] 0.014 | volasertib -0.041 | [3] -0.004 | [4] 0.055 | [5] -0.044 | saracatinib -0.044 | sotrastaurin 0.008

ATP11C (UniProt Q8NB49)
inactive: vemurafenib 0.04 | [1] 0.006 | barasertib 0.038 | [2] 0.053 | volasertib -0.023 | [3] -0.042 | [4] -0.043 | [5] 0.035 | saracatinib 0.029 | sotrastaurin 0.022

ATG13 isoform 2 (UniProt O75143)
active: [4] -0.281
inactive: vemurafenib -0.05 | [1] 0.042 | barasertib 0.024 | [2] 0.036 | volasertib 0.007 | [3] 0.015 | [5] 0.077 | saracatinib 0.005 | sotrastaurin 0.053

ATAD3B (UniProt Q5T9A4)
active: [4] 0.383
inactive: vemurafenib -0.022 | [1] 0.016 | barasertib -0.007 | [2] -0.004 | volasertib -0.019 | [3] 0.014 | [5] -0.205 | saracatinib -0.018 | sotrastaurin -0.013

ATP1B3 (UniProt P54709)
inactive: vemurafenib -0.014 | [1] -0.031 | barasertib -0.033 | [2] 0.027 | volasertib 0.024 | [3] -0.022 | [4] -0.067 | [5] 0.038 | saracatinib -0.005 | sotrastaurin -0.002

ATG2B (UniProt Q96BY7)
inactive: vemurafenib 0.043 | [1] 0.015 | barasertib 0.007 | [2] 0.023 | volasertib -0.013 | [3] 0.028 | [4] -0.016 | [5] -0.096 | saracatinib 0.003 | sotrastaurin 0.045

ATP5F1B (UniProt P06576)
inactive: vemurafenib 0.013 | [1] 0.005 | barasertib -0.009 | [2] 0.018 | volasertib 0.023 | [3] -0.027 | [4] -0.022 | [5] 0.036 | saracatinib 0.001 | sotrastaurin -0.001

AUP1 (UniProt Q9Y679)
inactive: vemurafenib 0.116 | [1] 0.034 | barasertib 0.008 | [2] -0.014 | volasertib -0.023 | [3] -0.02 | [4] -0.035 | [5] -0.086 | saracatinib 0.069 | sotrastaurin -0.015

ASRGL1 (UniProt Q7L266)
inactive: vemurafenib 0 | [1] -0.015 | barasertib -0.053 | [2] 0.044 | volasertib 0.025 | [3] -0.023 | [4] 0.012 | [5] 0.05 | saracatinib -0.006 | sotrastaurin -0.03

ATP6V1E1 (UniProt P36543)
inactive: vemurafenib -0.136 | [1] -0.006 | barasertib -0.042 | [2] 0.03 | volasertib 0.009 | [3] -0.011 | [4] -0.2 | [5] 0.116 | saracatinib -0.018 | sotrastaurin -0.011

ATE1 isoform 2 (UniProt O95260)
inactive: vemurafenib 0.118 | [1] -0.006 | barasertib 0.069 | [2] 0.019 | volasertib -0.013 | [3] 0.014 | [4] 0.032 | [5] 0.126 | saracatinib 0.006 | sotrastaurin -0.016

ATP5PD (UniProt O75947)
inactive: vemurafenib 0.006 | [1] -0.005 | barasertib 0.147 | [2] 0.017 | volasertib 0.039 | [3] 0 | [4] -0.014 | [5] 0.001 | saracatinib -0.034 | sotrastaurin -0.051

ATP6V1G1 (UniProt O75348)
inactive: vemurafenib -0.008 | [1] 0.008 | barasertib -0.016 | [2] 0.025 | volasertib 0.02 | [3] -0.005 | [4] -0.024 | [5] -0.001 | saracatinib -0.022 | sotrastaurin -0.04

ATAD3A (UniProt Q9NVI7)
inactive: vemurafenib -0.018 | [1] 0.007 | barasertib 0.035 | [2] 0.009 | volasertib 0.004 | [3] 0.037 | [4] 0.031 | [5] -0.175 | saracatinib 0 | sotrastaurin 0.03

ATG4B (UniProt Q9Y4P1)
inactive: vemurafenib 0.036 | [1] 0.04 | barasertib 0.047 | [2] 0.012 | volasertib -0.05 | [3] 0.008 | [4] 0.148 | [5] -0.105 | saracatinib 0.043 | sotrastaurin 0.039

ASDURF (UniProt L0R819)
inactive: vemurafenib -0.023 | [1] -0.006 | barasertib -0.032 | [2] 0.019 | volasertib 0.024 | [3] 0.02 | [4] 0.051 | [5] -0.05 | saracatinib -0.002 | sotrastaurin 0.035

ATP6V1F isoform 2 (UniProt Q16864)
inactive: vemurafenib -0.029 | [1] 0.004 | barasertib 0.086 | [2] 0.074 | volasertib 0.052 | [3] -0.006 | [4] 0.044 | [5] -0.17 | saracatinib 0.044 | sotrastaurin -0.004

ASCC1 isoform 2 (UniProt Q8N9N2)
inactive: vemurafenib 0.046 | [1] -0.003 | barasertib 0.04 | [2] -0.056 | volasertib -0.033 | [3] 0.013 | [4] -0.087 | [5] 0.017 | saracatinib 0.024 | sotrastaurin 0.068

AZI2 (UniProt Q9H6S1)
inactive: vemurafenib 0.019 | [1] -0.055 | barasertib 0.115 | [2] 0.032 | volasertib 0.092 | [3] -0.011 | [4] 0.122 | [5] -0.087 | saracatinib 0.009 | sotrastaurin 0.072

ATP5MC2 isoform 2 (UniProt Q06055)
inactive: vemurafenib 0.038 | [1] 0.083 | barasertib 0.015 | [2] -0.005 | volasertib 0.049 | [3] -0.088 | [4] -0.243 | [5] 0.078 | saracatinib 0 | sotrastaurin 0.014

ATP5PF isoform 2 (UniProt P18859)
inactive: vemurafenib 0.083 | [1] -0.023 | barasertib 0.064 | [2] 0.076 | volasertib 0.133 | [3] 0.076 | [5] -0.205 | saracatinib -0.024 | sotrastaurin -0.067
active: [4] 0.663

ASF1B (UniProt Q9NVP2)
inactive: vemurafenib 0.076 | [1] 0.042 | barasertib -0.041 | [2] 0.017 | volasertib -0.046 | [3] -0.04 | [4] -0.009 | [5] -0.064 | saracatinib 0.01 | sotrastaurin 0.025

ATG4A (UniProt Q8WYN0)
inactive: vemurafenib -0.045 | [1] 0.033 | barasertib 0.012 | [2] -0.047 | volasertib -0.015 | [3] 0.008 | [4] 0.027 | [5] -0.045 | saracatinib 0.034 | sotrastaurin -0.043

Quoted at random: 2 entries already listed, in no set order.
ASCC1 isoform 2 (UniProt Q8N9N2)
inactive: vemurafenib 0.046 | [1] -0.003 | barasertib 0.04 | [2] -0.056 | volasertib -0.033 | [3] 0.013 | [4] -0.087 | [5] 0.017 | saracatinib 0.024 | sotrastaurin 0.068

ATL3 (UniProt Q6DD88)
inactive: vemurafenib 0.046 | [1] -0.022 | barasertib 0.022 | [2] 0.014 | volasertib -0.041 | [3] -0.004 | [4] 0.055 | [5] -0.044 | saracatinib -0.044 | sotrastaurin 0.008

(cont.)

ATG12 (UniProt O94817)
inactive: vemurafenib -0.03 | [1] 0.04 | barasertib 0.027 | [2] 0.054 | volasertib -0.052 | [3] 0.007 | [4] -0.072 | [5] 0.117 | saracatinib 0.04 | sotrastaurin 0.005

ATG4C (UniProt Q96DT6)
inactive: vemurafenib -0.07 | [1] 0.022 | barasertib -0.012 | [2] -0.022 | volasertib -0.079 | [3] 0.086 | [4] 0.108 | [5] 0.004 | saracatinib -0.042 | sotrastaurin 0.026

ASMTL (UniProt O95671)
inactive: vemurafenib 0.003 | [1] 0.019 | barasertib 0.031 | [2] -0.036 | volasertib -0.023 | [3] -0.001 | [4] -0.016 | [5] 0.046 | saracatinib 0.026 | sotrastaurin 0.056
